Measured values reported in PubChem BioAssay AID504467 (National Center for Advancing Translational Sciences (NCATS), 2011).
The campaign covered roughly 330,000 compounds. About 7,700 (2.3%) were called active. This list was built around the results that the source calls inconclusive (neither active nor inactive); the mix of calls is not that of the screen. Calls follow the shape of the dose curve; as a rule, active = well fitted inhibition curve with a large enough effect; inconclusive = small, poorly fitted or top-dose-only effect, or effect the other way; inactive = flat fitted curve, though single readings scatter. Potencies of inconclusive entries are doubtful fits and often do not repeat.

Assay: qHTS screen for small molecules that inhibit ELG1-dependent DNA repair in human embryonic kidney (HEK293T) cells expressing luciferase-tagged ELG1; also: nearly all actives have a fitted effect of over 55% in size
Conditions: HEK293T ELG1-luciferase reporter, luminescence, 16 h, DNA damage induced by 5-fluorouridine; series mostly up to 46.1 µM
Procedure, shortened: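 Quantitative HTS, concentration-response format. 2,000 cells/well co-treated with 5-fluorouridine and compound, 16 hr in 5% CO2 at 37 °C; ONE-Glo luminescence read after 30 min.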
Potency is read from the fitted curve at half-maximal effect.

Structure (SMILES)	Potency
O=C(CSc1n[nH]c(-c2cccs2)n1)NCc1ccc2c(c1)OCO2	inactive
Cc1ccc(C(=O)NCCc2csc(-c3cccnc3)n2)cc1	inconclusive: 23.1 µM [activator, single point]
Cc1ccccc1CNC(=O)c1cc(COc2ccc(F)cc2F)on1	inconclusive: 29.1 µM [inhibitor, single point]
O=c1[nH]c(=O)n([C@H]2C[C@H](O)[C@@H](CO)O2)cc1I	inactive
CCC(=O)NC(=S)Nc1ccc(NC(=S)NC(=O)c2ccc(C)cc2)cc1	inactive
CC(=O)N1CCN(C(=S)Nc2ccc(Oc3ccccc3)cc2)CC1	inconclusive: 14.6 µM [inhibitor, single point]
CC(=O)N1c2ccccc2N2C(c3c(C)c(C)cc(C)c3C)=NON12	inconclusive: 5.8 µM [activator, partial curve, poor fit]
Cc1nc(COC(=O)c2ccc(CO)cc2)cs1	inactive
COc1ccc(/C=N/NC(=O)c2ccc(COCC(F)(F)C(F)F)cc2)cc1	inactive
CC(C)CCn1cnc2c(cnn2-c2ccc(F)cc2)c1=O	inconclusive: 25.9 µM [activator, single point]
COc1ccc(/C=C2/SC(=S)N(Cc3ccccc3)C2=O)cc1O	inconclusive: 0.73 µM [inhibitor, partial curve, poor fit]
COc1ccc(N(CC(=O)Nc2ccccc2C(=O)NCCc2ccccc2)S(C)(=O)=O)cc1OC	inconclusive: 25.9 µM [inhibitor, partial curve, poor fit]
CC(C)Cc1ccc(C(C)C(N)=NCCc2ccccc2)cc1 (stereo unspecified)	inconclusive: 18.3 µM [inhibitor, single point]
O=C(COC(=O)c1ccc2c(c1)OCO2)Nc1ccccc1F	inconclusive: 20.6 µM [activator, partial curve, poor fit]
CCOC(=O)N1CCN(C(=O)c2ccc(Oc3ccc([N+](=O)[O-])cc3)cc2)CC1	inconclusive: 29.1 µM [inhibitor, single point]
Cc1ccccc1C(=O)NNC(=O)CCC(=O)Nc1cccc(Cl)c1C	inconclusive: 16.4 µM [activator, partial curve, poor fit]
C(=N\Nc1nc2ccccc2[nH]1)/c1cccs1	inconclusive: 4.11 µM [activator, full curve]
Cc1nn(C)c(C)c1CN(Cc1nc(CCC(C)C)no1)C(C)C	inconclusive: 0.517 µM [inhibitor, partial curve, poor fit]
CC1CCN(CC(=O)Nc2ccc3c(c2)OCO3)CC1	inconclusive: 16.4 µM [activator, partial curve]
O=C(NCCc1ccc(Cl)cc1)c1ccc2[nH]c(=O)c(=O)[nH]c2c1	inconclusive: 9.2 µM [activator, partial curve, poor fit]
CCCN(CCC)S(=O)(=O)c1ccc(NC(=O)c2cc(C(=O)OC)cc([N+](=O)[O-])c2)cc1	inactive
O=C(NCC1CCCO1)C(c1ccncc1)N(Cc1cccs1)C(=O)Cn1nnc(-c2ccc(F)cc2)n1 (stereo unspecified)	inconclusive: 18.3 µM [inhibitor, partial curve, poor fit]
O=C(c1ccc(F)cc1)C1CCN(Cc2cn[nH]c2-c2ccc(F)cc2)CC1	inconclusive: 5.8 µM [inhibitor, single point]
Cc1cc(NC(=O)CSc2nnc(-c3ccoc3C)o2)no1	inactive

Structure (SMILES)	Potency
Cn1ccnc1SCC(=O)c1ccc(O)cc1	inconclusive: 20.6 µM [activator, partial curve]
Cc1ccc(C(=O)Cn2nnc3ccccc32)cc1	inconclusive: 13 µM [activator, partial curve]
CCC(=O)NC(c1ccc([N+](=O)[O-])cc1)c1c(O)ccc2ccccc12 (stereo unspecified)	inactive
O=C(Nc1ccccc1F)c1ccc(CN2CCc3ccccc3C2)cc1	inactive
CCN1CCN(CCNC(=O)c2ccc(CS(=O)c3ccc(Cl)cc3)o2)CC1 (stereo unspecified)	inactive
C=CCn1c(SCC(=O)Nc2ccccc2C)nnc1-c1ccncc1	inactive
COc1ccc(OC)c(NC(=O)Nc2cc(C(=O)O)ccc2C)c1	inactive
CCN(CC)S(=O)(=O)c1ccc(N2CCCC2)c(C(=O)OCC(=O)Nc2cc(C)on2)c1	inconclusive: 29.1 µM [inhibitor, single point]
Cc1ccc2[nH]c(=O)c(CN(Cc3ccco3)S(=O)(=O)c3c(C)ccc4nsnc34)cc2c1	inconclusive: 9.2 µM [inhibitor, single point]
CC(=O)c1ccc(N2CCN(C(=O)c3cccs3)CC2)c(F)c1	inconclusive: 14.6 µM [activator, single point]
O=C(NCC1CCCO1)c1cc2c(s1)CCCC2 (stereo unspecified)	inconclusive: 16.4 µM [activator, partial curve]
CSc1ccc(-c2nc(CN3CCCCC3c3cccnc3)c(C)o2)cc1 (stereo unspecified)	inconclusive: 16.4 µM [inhibitor, single point]
Cc1c(N(C(=O)Nc2ccccc2)C2=NCC(C)S2)c(=O)n(-c2ccccc2)n1C (stereo unspecified)	inconclusive: 25.9 µM [activator, single point]
O=C(CCNC(=O)c1ccc([N+](=O)[O-])cc1)Nc1nc2ccccc2[nH]1	inconclusive: 20.6 µM [activator, single point]
COc1ccc(C2C(C(=O)c3cccs3)=C(O)C(=O)N2CCN2CCOCC2)c(OC)c1 (stereo unspecified)	inactive
Cc1ccc(CC(=O)O/N=C(\N)c2cccc([N+](=O)[O-])c2)cc1	inactive
Cc1csc(Nc2ccccc2C(F)(F)F)n1	inactive
O=C1N=C(N2C=CC(=C3C=CNC=C3)C=C2)/C(=C/N=NC(=O)c2ccccc2O)S1	inactive
Cc1ccc(C(=O)N(CC(=O)NC2CCCCC2)c2ccccc2C)s1	inactive
Cc1csc2ncnc(N3CCN(C(=O)Nc4ccc(OC(F)(F)F)cc4)CC3)c12	inconclusive: 20.6 µM [inhibitor, partial curve]
CCCCN(C)C(=O)c1cc2cc3cc(OC)ccc3nc2o1	inconclusive: 11.6 µM [activator, partial curve]
O=S1(=O)CCO[C@H]2Cc3ccccc3[C@H]2N1Cc1cccc(F)c1	inactive
CC(C(=O)NC1C(=O)N2C(C(=O)O)=C(CSc3nnnn3C)CSC12)n1cc(Br)cn1 (stereo unspecified)	inactive
COc1ccc(N(C)S(=O)(=O)c2cccc(C(=O)Nc3cccc(C(=O)NC4CC4)c3)c2)cc1	active: 20.6 µM

In another format: 4 of the compounds above
CCN(CC)S(=O)(=O)c1ccc(N2CCCC2)c(C(=O)OCC(=O)Nc2cc(C)on2)c1
  Potency: inconclusive: 29.1 µM [inhibitor, single point]
Cc1ccc2[nH]c(=O)c(CN(Cc3ccco3)S(=O)(=O)c3c(C)ccc4nsnc34)cc2c1
  Potency: inconclusive: 9.2 µM [inhibitor, single point]
CC(=O)c1ccc(N2CCN(C(=O)c3cccs3)CC2)c(F)c1
  Potency: inconclusive: 14.6 µM [activator, single point]
O=C(NCC1CCCO1)c1cc2c(s1)CCCC2 (stereo unspecified)
  Potency: inconclusive: 16.4 µM [activator, partial curve]

Additional results

Structure (SMILES)	Potency
CCCc1nnc(NC(=O)C2CC(=O)N(C3CCCC3)C2)s1 (stereo unspecified)	inactive
Cc1ccccc1NC(=O)COC(=O)/C=C/c1cn(-c2ccccc2)nc1-c1cccnc1	inconclusive: 20.6 µM [inhibitor, partial curve]
Cc1c(CC(=O)N[C@H](C(=O)O)C(C)C)c(=O)oc2cc3c(cc12)CCC(C)(C)O3	inconclusive: 13 µM [activator, partial curve]
COc1ccccc1N(C)S(=O)(=O)c1ccc(C(=O)Nc2ncc(C)s2)cc1	inconclusive: 20.6 µM [inhibitor, single point]
COc1ccccc1N1CCN(C(=O)COc2cccc(C)c2C)CC1	inconclusive: 25.9 µM [inhibitor, single point]
O=C(CC1CS(=O)(=O)CC1CC(=O)Nc1ccc2c(c1)OCCO2)Nc1ccc2c(c1)OCCO2 (stereo unspecified)	inconclusive: 2.91 µM [activator, full curve]
O=C(COc1cccc(Cl)c1)Nc1cc(S(=O)(=O)N2CCOCC2)ccc1N1CCOCC1	inconclusive: 25.9 µM [inhibitor, partial curve]
CCC1CCCCN1C(=S)NC1CCCCC1 (stereo unspecified)	inactive
Cc1oc(C(=O)O)cc1COc1ccccc1Cl	inconclusive: 16.4 µM [activator, partial curve]
CC(=O)c1ccc(OC(=O)Cc2cccc3ccccc23)cc1	inactive
Cc1cc(C(=O)NC2CCN(Cc3ccccc3)CC2)n[nH]1	inconclusive: 18.3 µM [activator, partial curve, poor fit]
COc1ccc2cc(-c3[nH]ncc3CNCCn3nc(C)cc3C)ccc2c1	inconclusive: 16.4 µM [activator, partial curve]
CCOC(=O)N1CCC(NC(=O)c2ccc3c(Cl)c4c(nc3c2)CCCC4)CC1	inconclusive: 29.1 µM [inhibitor, single point]
O=S(=O)(Nc1ccc(-c2ccc3nncn3n2)cc1)c1cc(F)ccc1F	inconclusive: 20.6 µM [activator, single point]
CCCc1cc(-c2[nH]ncc2-c2ccc3c(c2)OCCCO3)c(O)cc1OC	inconclusive: 18.4 µM [inhibitor, single point]
CCc1nnc(NC(=O)CSc2nc3c(c(=O)n2C)SC(C)C3)s1 (stereo unspecified)	inactive
c1ccc(Nc2nc(N3CCCCC3)nc(N3CCCCC3)n2)cc1	inactive
O=C(CSc1nnc2ccccn12)c1ccc2c(c1)OCCO2	inconclusive: 14.6 µM [activator, partial curve]
CC(C)NC(=O)c1ccccc1NC(=O)C1COc2ccccc2O1 (stereo unspecified)	active: 20.6 µM
S=C(NCc1ccco1)N1CCN(c2nc(-c3ccc(Cl)cc3)cs2)CC1	inconclusive: 18.3 µM [inhibitor, single point]
CCOC(=O)/C=C/C(=O)OCC(=O)Nc1ccc(Cl)cc1Cl	inactive
CCOC(=O)c1c(Cl)c(C)nn1-c1nc(OC)cc(OC)n1	inactive
Cc1c(-c2ccc(OCc3ccccc3)cc2)nc2ccccc2c1C(=O)O	inconclusive: 29.1 µM [activator, single point]
